# Several values for one entry are separate records, joined by “and”; a condition that tells them apart may be missing. Equal values may be shown once. Where a name gives a salt, the structure may show the parent alone. ± gives the standard deviation of the averaged measurements. The list shows a part of the results. Part of the spread comes from offsets between plates or batches.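 Assay uses culture-activated primary human stellate myofibroblasts; lipid droplet recovery indicates inactivation. Measured: proportion of Hoechst-counted cells over a plate-specific Bodipy cutoff, duplicate wells, DMSO and nortriptyline as per-plate negative and positive controls. A hit scores, control-normalized, above the plate's top-tenth-percentile nortriptyline wells or ranks among its three best wells. Final well concentrations not reported.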
# Test system: primary human hepatic stellate cells (donor 1)
# Test: percent Bodipy-positive cells; higher = more lipid droplet accumulation
# Details: 48 h
# [1] = library stock concentration: 80 uM
# [2] = library stock concentration: 400 uM
# [3] = library stock concentration: 2 mM
# [4] = library stock concentration: 3.33 mM
# [5] = library stock concentration: 1 mM
# [6] = library stock concentration: 10 mM
smiles,measurement,setting,value
O=C1c2ccccc2-c2n[nH]c3cccc1c23,percent Bodipy-positive cells,[1],24.2 ± 1.1%
same,percent Bodipy-positive cells,[2],27.2 ± 7.4%
same,percent Bodipy-positive cells,[3],15.2 ± 1%
same,percent Bodipy-positive cells,[4],8.1 ± 5.6%
O=C1c2ccccc2-c2n[nH]c3cccc1c23 [JNK Inhibitor II],percent Bodipy-positive cells,[4],18.4 ± 0.78%
CCOc1nc(NC(=O)Cc2cc(OC)ccc2OC)cc(N)c1C#N [JNK Inhibitor VIII],percent Bodipy-positive cells,[4],11.9 ± 0.42%
CCCCC[C@H](O)/C=C/[C@@H]1[C@@H](C/C=C\CCCC(=O)O)[C@H](O)C[C@H]1O [Prostaglandin F2.beta.],percent Bodipy-positive cells,[5],11.7 ± 2.9%
CCCCC[C@H](O)/C=C/[C@@H]1[C@@H](C/C=C\CCCC(=O)O)[C@H](O)C[C@H]1O [Prostaglandin F2.beta. (tromethamine salt)],percent Bodipy-positive cells,[5],9.92 ± 3.5%
"CCCCC[C@H](O)/C=C/[C@@H]1[C@@H](C/C=C\CCCC(=O)O)[C@H](O)C[C@H]1O [9b,11a-Prostaglandin F2]",percent Bodipy-positive cells,[5],10.9 ± 5%
CNC(=O)c1ccc(N2C(=S)N(c3cnc(C#N)c(C(F)(F)F)c3)C(=O)C23CCC3)cc1F,percent Bodipy-positive cells,[4],7.54 ± 3.3%
same,percent Bodipy-positive cells,[6],13.5 ± 8.5%
CCO/C(O)=C1\C(COCCN)=NC(C)=C(C(=O)OC)C1c1ccccc1Cl (stereo not given),percent Bodipy-positive cells,[6],99 ± 0.99%
COc1cc(C=C(C#N)C(N)=O)cc(CSc2nc3ccccc3s2)c1O [Tyrphostin AG-825],percent Bodipy-positive cells,library stock concentration: 12.6 mM,21.7 ± 3.6%
CNCCCN1c2ccccc2CCc2ccccc21.Cl,percent Bodipy-positive cells,[6],97.64 ± 0.96%
CCCCCCCCCCCCCC(=O)OCC [Myristic Acid ethyl ester],percent Bodipy-positive cells,[5],11.6 ± 0.72%
CC1(C)CCCC2(C)C1CCC1(C)OC(=O)CC12 (stereo not given) [Sclareolide],percent Bodipy-positive cells,[4],8.63 ± 0.55%
same,percent Bodipy-positive cells,[6],28.1 ± 2.6%
Cc1onc(-c2ccccc2)c1C(=O)N[C@@H]1C(=O)N2[C@@H]1SC(C)(C)[C@@H]2C(=O)O [Oxacillin sodium monohydrate],percent Bodipy-positive cells,library stock concentration: 5 mM,11.1 ± 2.5%
Cc1onc(-c2ccccc2)c1C(=O)N[C@@H]1C(=O)N2[C@@H]1SC(C)(C)[C@@H]2C(=O)O [Micropenin],percent Bodipy-positive cells,[6],56.2 ± 5.8%
Cc1onc(-c2ccccc2)c1C(=O)N[C@@H]1C(=O)N2[C@@H]1SC(C)(C)[C@@H]2C(=O)O [Oxacillin sodium],percent Bodipy-positive cells,library stock concentration: 4.7 mM,3.35 ± 3.2%
same,percent Bodipy-positive cells,[6],10.3 ± 2.5%
O=C(O)CNC(=O)C(CS)Cc1ccccc1 (stereo not given) [Thiorphan],percent Bodipy-positive cells,,26.8 ± 4.3%
CN(C)[C@@H](CCOc1cccc2ccccc12)c1ccccc1 [Dapoxetine HCl],percent Bodipy-positive cells,[4],58.1 ± 20%
same,percent Bodipy-positive cells,[6],91.9 ± 4.5%
CN(C)CCCC1(c2ccc(F)cc2)OCc2cc(C#N)ccc21 (stereo not given) [Citalopram],percent Bodipy-positive cells,library stock concentration: 6.2 mM,35.5% and 51.3%
same,percent Bodipy-positive cells,[6],70.7 ± 1.5%
CN(C)CCCC1(c2ccc(F)cc2)OCc2cc(C#N)ccc21 (stereo not given) [Citalopram hydrobromide],percent Bodipy-positive cells,[6],48.4% and 45.8%
CN(C)CCCC1(c2ccc(F)cc2)OCc2cc(C#N)ccc21 (stereo not given) [Citalopram Hydrobromide],percent Bodipy-positive cells,,28.5 ± 0.51%
Nn1nnc2ccccc21 [1-Aminobenzotriazole],percent Bodipy-positive cells,[6],33.6 ± 2.6%
CCCCC[C@H](O)/C=C/[C@H]1CCC(=O)[C@@H]1C/C=C\CCCC(=O)O [11-deoxy Prostaglandin E2],percent Bodipy-positive cells,[5],27.4 ± 0.92%
CC[C@H](Nc1ncnc2[nH]cnc12)c1nc2cccc(F)c2c(=O)n1-c1ccccc1,percent Bodipy-positive cells,[1],9.46 ± 2.3%
same,percent Bodipy-positive cells,[2],6.2 ± 1.8%
same,percent Bodipy-positive cells,[3],3.57 ± 0.57%
same,percent Bodipy-positive cells,[6],8.96 ± 0.46%
"CC[C@H](Nc1ncnc2[nH]cnc12)c1nc2cccc(F)c2c(=O)n1-c1ccccc1 [CAL-101 (Idelalisib, GS-1101)]",percent Bodipy-positive cells,[4],12 ± 2.4%
same,percent Bodipy-positive cells,[6],16.6 ± 5.2%
COc1cc2c(N3CCN(C(=O)Nc4ccc(OC(C)C)cc4)CC3)ncnc2cc1OCCCN1CCCCC1,percent Bodipy-positive cells,[6],99.461 ± 0.037%
CCCCCCCCCCCCCC(=O)N[C@H](CO)[C@H](O)c1ccc([N+](=O)[O-])cc1,percent Bodipy-positive cells,[5],7.27 ± 0.62%
CCCCCCCOC(=O)Cc1c(C)n(C(=O)c2ccc(Cl)cc2)c2ccc(OC)cc12 [Indomethacin heptyl ester],percent Bodipy-positive cells,[5],7.23 ± 0.47%
Nc1nccc(-c2c(-c3ccc(F)cc3)ncn2C2CCNCC2)n1,percent Bodipy-positive cells,[4],27.7 ± 3.7%
COc1ccccc1CNCCCCCCNCCCCCCCCNCCCCCCNCc1ccccc1OC [Methoctramine tetrahydrochloride],percent Bodipy-positive cells,[6],98.9 ± 1.5%
CC(C)c1noc(N2CCC(COc3ccc(-c4ccc(S(C)(=O)=O)cc4)nc3)CC2)n1,percent Bodipy-positive cells,[4],13.5 ± 2.1%
same,percent Bodipy-positive cells,[6],36.6 ± 5.2%
CCC(=O)Nc1cccc(Oc2nc(Nc3ccc(N4CCN(C)CC4)cc3OC)ncc2Cl)c1,percent Bodipy-positive cells,[6],95.3 ± 2.2%
O=C(NC1CCNCC1)c1n[nH]cc1NC(=O)c1c(Cl)cccc1Cl,percent Bodipy-positive cells,[1],46.3 ± 9.4%
same,percent Bodipy-positive cells,[2],41.3% and 57.2%
same,percent Bodipy-positive cells,[3],54% and 63.8%
same,percent Bodipy-positive cells,[4],45.3 ± 11%
same,percent Bodipy-positive cells,[6],69.4% and 60.4% and 73.6%
CNC(=O)c1c(I)c(NC(C)=O)c(I)c(C(=O)O)c1I,percent Bodipy-positive cells,[6],53.9 ± 10%
"C[C@H](NC(=O)/C(C#N)=C/c1ccc(O)c(O)c1)c1ccccc1 [Tyrphostin B44, (+) enantiomer]",percent Bodipy-positive cells,[6],6.46 ± 1.7%
C[C@H](NC(=O)/C(C#N)=C/c1ccc(O)c(O)c1)c1ccccc1 [Tyrphostin AG 835],percent Bodipy-positive cells,[6],12.1 ± 5.1%
"O=S(=O)(NCCNC/C=C/c1ccc(Br)cc1)c1cccc2cnccc12 [H-89, Dihydrochloride]",percent Bodipy-positive cells,[4],22.8 ± 6%
O=S(=O)(NCCNC/C=C/c1ccc(Br)cc1)c1cccc2cnccc12,percent Bodipy-positive cells,[1],14 ± 4.8%
same,percent Bodipy-positive cells,[2],9.63 ± 0.64%
same,percent Bodipy-positive cells,[3],19.57 ± 0.043%
O[C@@H](COc1cccc2ncccc12)CN1CCN(C2c3ccccc3[C@@H]3[C@H](c4ccccc42)C3(F)F)CC1 (stereo not given in full),percent Bodipy-positive cells,[4],28.9 ± 5.2%
same,percent Bodipy-positive cells,[6],83.5 ± 10%
COc1ccc(-c2coc3cc(O)cc(O)c3c2=O)cc1 [Biochanin A],percent Bodipy-positive cells,[4],19.8 ± 14%
same,percent Bodipy-positive cells,[6],9.51 ± 1.1%

# Part of the list above, with tabs:
smiles	measurement	setting	value
O=C1c2ccccc2-c2n[nH]c3cccc1c23 [JNK Inhibitor II]	percent Bodipy-positive cells	[4]	18.4 ± 0.78%
CNC(=O)c1ccc(N2C(=S)N(c3cnc(C#N)c(C(F)(F)F)c3)C(=O)C23CCC3)cc1F	percent Bodipy-positive cells	[4]	7.54 ± 3.3%
CN(C)CCCC1(c2ccc(F)cc2)OCc2cc(C#N)ccc21 (stereo not given) [Citalopram Hydrobromide]	percent Bodipy-positive cells		28.5 ± 0.51%

# — the supplement of paper PMC9135407
